# This is one part of the list.
# Chains of the proteins cited; added tags and fusions are not shown. Lines headed by an entry give the natural chain unless they say otherwise; changes in a name come on top.
# UniProt Q676U5: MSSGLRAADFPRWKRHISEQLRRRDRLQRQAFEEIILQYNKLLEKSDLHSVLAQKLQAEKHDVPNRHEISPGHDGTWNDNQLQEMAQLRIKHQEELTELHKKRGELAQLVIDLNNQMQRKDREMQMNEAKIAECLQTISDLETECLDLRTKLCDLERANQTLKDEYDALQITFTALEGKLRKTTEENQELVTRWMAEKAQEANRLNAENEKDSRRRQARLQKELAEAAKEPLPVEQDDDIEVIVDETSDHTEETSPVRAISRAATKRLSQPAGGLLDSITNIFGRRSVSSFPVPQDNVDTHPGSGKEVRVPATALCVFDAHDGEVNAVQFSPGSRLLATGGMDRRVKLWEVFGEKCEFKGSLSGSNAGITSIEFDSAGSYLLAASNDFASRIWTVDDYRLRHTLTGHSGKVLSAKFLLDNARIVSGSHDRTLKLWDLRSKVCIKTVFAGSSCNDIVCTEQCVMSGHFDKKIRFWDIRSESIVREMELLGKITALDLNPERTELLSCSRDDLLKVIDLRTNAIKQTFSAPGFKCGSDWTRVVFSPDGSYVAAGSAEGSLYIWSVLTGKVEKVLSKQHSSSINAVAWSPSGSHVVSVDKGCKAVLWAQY
# UniProt P16615: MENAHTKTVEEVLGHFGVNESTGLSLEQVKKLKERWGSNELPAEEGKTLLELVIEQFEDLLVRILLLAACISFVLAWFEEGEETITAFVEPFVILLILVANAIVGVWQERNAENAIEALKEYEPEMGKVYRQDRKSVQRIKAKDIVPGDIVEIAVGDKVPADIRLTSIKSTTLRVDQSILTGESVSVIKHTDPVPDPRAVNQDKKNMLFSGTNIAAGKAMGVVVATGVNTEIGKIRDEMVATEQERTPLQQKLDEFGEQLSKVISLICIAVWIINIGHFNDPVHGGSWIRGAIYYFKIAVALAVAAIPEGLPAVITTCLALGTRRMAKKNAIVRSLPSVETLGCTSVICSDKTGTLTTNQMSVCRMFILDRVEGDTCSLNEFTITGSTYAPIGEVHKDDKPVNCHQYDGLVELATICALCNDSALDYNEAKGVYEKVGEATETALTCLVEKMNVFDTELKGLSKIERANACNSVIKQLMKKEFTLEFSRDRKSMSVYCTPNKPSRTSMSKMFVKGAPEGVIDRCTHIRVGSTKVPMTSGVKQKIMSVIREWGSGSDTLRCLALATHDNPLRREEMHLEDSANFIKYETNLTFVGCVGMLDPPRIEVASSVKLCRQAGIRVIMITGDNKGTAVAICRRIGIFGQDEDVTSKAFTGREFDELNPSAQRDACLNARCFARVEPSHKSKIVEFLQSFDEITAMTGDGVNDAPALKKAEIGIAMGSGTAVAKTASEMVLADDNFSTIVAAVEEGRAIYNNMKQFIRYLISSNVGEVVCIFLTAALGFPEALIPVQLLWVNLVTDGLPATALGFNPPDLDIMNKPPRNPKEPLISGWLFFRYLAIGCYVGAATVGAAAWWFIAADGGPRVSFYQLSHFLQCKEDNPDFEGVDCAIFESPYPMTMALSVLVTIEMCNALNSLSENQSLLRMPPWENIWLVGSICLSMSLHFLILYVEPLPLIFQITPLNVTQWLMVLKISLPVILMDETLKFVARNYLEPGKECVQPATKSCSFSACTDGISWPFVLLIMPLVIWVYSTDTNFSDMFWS
# UniProt O95352: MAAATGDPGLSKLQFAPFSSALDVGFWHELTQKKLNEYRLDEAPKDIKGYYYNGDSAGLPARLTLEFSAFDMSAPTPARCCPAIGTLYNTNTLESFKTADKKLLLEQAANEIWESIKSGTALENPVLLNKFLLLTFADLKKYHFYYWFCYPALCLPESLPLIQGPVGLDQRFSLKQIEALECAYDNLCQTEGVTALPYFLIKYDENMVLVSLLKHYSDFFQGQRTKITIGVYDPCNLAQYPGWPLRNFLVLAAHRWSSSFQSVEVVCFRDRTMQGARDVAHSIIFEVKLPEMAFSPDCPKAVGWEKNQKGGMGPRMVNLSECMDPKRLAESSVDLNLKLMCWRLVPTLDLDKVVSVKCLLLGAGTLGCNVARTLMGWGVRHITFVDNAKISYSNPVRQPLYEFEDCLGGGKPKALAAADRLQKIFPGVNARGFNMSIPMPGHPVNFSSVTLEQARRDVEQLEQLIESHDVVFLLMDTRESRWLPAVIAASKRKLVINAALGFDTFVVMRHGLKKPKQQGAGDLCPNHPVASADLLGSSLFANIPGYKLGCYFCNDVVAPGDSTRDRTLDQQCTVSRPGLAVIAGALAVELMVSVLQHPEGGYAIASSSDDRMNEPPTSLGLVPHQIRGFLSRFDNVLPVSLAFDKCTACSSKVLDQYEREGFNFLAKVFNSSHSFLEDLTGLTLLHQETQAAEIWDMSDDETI
# UniProt Q9ULI0: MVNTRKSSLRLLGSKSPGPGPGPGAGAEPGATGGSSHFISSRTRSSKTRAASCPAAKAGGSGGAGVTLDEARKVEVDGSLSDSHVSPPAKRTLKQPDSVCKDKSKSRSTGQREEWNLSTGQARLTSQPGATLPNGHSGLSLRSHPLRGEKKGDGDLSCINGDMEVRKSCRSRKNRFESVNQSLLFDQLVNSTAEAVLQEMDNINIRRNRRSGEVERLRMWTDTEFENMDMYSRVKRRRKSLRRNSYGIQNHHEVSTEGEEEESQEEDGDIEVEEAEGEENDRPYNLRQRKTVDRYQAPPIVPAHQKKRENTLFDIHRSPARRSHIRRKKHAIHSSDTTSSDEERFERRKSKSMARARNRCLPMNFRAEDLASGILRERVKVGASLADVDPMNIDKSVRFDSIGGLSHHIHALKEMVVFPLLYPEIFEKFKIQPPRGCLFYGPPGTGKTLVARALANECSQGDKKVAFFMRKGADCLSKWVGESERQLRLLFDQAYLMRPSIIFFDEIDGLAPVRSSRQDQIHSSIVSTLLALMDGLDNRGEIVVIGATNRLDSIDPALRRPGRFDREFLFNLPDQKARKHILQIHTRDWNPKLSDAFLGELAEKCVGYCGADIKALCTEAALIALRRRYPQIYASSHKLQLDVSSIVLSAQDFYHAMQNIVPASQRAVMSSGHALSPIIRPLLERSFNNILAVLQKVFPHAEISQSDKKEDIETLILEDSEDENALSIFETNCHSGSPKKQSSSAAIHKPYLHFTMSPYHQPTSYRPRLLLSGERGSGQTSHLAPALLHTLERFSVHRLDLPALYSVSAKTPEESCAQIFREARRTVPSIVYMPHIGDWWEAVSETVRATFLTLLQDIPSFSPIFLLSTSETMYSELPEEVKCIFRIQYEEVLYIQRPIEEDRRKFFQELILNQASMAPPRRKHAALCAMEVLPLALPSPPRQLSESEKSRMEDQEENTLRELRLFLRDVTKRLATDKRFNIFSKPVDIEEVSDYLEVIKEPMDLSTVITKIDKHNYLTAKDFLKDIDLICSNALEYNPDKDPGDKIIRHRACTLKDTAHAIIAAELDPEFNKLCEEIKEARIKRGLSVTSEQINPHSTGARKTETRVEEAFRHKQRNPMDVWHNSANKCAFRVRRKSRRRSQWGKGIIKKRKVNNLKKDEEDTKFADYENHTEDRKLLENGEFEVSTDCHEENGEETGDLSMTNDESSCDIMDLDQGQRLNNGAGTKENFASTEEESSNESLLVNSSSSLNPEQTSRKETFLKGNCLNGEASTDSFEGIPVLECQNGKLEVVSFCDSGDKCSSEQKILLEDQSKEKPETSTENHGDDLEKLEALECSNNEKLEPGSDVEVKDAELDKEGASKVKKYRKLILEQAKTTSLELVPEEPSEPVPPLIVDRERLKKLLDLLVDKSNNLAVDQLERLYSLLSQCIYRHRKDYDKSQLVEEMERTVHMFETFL
# UniProt O43681: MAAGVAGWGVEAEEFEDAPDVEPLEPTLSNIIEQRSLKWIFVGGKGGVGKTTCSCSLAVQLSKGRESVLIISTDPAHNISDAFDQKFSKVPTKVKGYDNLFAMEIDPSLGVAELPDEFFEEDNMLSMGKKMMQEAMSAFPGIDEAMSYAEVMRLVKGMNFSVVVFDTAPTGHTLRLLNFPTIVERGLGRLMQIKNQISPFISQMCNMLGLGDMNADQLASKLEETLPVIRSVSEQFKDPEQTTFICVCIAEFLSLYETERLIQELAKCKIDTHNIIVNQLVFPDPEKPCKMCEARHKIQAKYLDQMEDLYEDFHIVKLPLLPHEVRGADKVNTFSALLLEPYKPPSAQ
# UniProt Q2TB18: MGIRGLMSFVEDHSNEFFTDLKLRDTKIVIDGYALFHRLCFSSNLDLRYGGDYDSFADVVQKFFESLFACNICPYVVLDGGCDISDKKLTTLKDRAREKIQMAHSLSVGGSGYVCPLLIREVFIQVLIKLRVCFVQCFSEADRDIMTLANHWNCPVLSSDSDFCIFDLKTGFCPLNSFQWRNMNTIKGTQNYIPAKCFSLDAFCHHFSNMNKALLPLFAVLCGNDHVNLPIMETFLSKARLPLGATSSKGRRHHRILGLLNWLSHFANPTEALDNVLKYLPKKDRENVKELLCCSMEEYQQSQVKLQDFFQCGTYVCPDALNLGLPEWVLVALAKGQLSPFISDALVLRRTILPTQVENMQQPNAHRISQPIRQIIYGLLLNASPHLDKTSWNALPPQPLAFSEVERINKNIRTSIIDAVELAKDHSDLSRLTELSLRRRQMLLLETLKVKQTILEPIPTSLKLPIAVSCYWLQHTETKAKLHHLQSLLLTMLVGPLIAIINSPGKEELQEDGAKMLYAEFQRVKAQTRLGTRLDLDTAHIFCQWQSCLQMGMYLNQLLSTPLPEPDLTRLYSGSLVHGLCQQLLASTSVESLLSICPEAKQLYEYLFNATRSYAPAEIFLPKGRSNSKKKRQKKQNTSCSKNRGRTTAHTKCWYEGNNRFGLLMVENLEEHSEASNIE
# UniProt Q9Y2G3: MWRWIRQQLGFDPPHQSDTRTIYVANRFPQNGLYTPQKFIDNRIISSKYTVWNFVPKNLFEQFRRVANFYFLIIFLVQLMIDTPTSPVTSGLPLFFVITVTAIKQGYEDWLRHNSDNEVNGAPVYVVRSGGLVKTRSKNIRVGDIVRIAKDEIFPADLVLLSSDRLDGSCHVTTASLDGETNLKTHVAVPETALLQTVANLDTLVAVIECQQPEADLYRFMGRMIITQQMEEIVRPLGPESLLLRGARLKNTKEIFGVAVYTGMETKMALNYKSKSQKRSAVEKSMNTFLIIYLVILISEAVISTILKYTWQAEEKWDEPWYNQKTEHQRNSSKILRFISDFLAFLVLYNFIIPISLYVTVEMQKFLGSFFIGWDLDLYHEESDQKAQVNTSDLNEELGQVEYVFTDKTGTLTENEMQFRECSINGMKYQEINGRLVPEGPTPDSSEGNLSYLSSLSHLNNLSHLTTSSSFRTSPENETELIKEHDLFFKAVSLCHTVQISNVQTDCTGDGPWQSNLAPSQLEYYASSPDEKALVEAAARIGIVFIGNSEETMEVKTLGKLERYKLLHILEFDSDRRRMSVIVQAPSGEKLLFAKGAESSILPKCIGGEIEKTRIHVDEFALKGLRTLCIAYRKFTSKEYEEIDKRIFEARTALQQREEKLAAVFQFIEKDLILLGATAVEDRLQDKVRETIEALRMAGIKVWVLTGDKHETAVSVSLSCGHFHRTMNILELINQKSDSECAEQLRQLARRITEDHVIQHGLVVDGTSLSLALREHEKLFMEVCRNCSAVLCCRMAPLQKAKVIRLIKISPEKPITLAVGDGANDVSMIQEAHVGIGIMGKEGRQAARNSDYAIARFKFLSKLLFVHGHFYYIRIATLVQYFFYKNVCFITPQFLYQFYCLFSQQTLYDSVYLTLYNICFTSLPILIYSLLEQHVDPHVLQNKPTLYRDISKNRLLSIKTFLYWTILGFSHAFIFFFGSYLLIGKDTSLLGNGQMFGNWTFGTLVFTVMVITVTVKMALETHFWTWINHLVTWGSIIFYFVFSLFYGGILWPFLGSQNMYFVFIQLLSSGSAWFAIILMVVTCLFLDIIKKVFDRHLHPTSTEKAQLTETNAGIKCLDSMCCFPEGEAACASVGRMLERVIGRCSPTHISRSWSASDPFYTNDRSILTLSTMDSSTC
# Compound: Cc1cc(ccc1-c1ccccc1)C(=O)N1CCCN(CC1)C(=O)CCl [compound 10]
# Assay: probe-labelled cysteine peptide fold change vs DMSO (competition) (log2 fold change); higher = less target engagement (more negative = stronger competition)
# Conditions: 10 µM; THP-1; incubation time: 4 h
# 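Further: competitive profiling in live THP-1 cells: cysteine peptides tagged with an iodoacetamide desthiobiotin (IA-DTB) probe, intensity after compound treatment relative to DMSO-treated cells.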
row,Target,probe-labelled cysteine peptide fold change
1,ATG16L1_Q676U5_145_IAECLQTISDLETECLDLR (UniProt Q676U5),0.211
2,ATP2A2_P16615_364_TGTLTTNQMSVCR (UniProt P16615),0.259
3,ATG7_O95352_358+368_CLLLGAGTLGCNVAR (UniProt O95352),0.136
4,ATM_Q13315_2473_AVENYINCLLSGEEHDMWVFR (UniProt Q13315),0.0427
5,ATG2A_Q2TAZ0_698+715_SELSSGPGPPVPTHLELTCSDLHGIYEDGGKPPVPCLR (UniProt Q2TAZ0),-0.184
6,ATRX_P46100_1576_LKPHQVDGVQFMWDCCCESVK (UniProt P46100),-0.0106
7,ATP13A1_Q9HD20_971_LSSIQCICHVIK (UniProt Q9HD20),-0.129
8,ATAD2B_Q9ULI0_816_TPEESCAQIFR (UniProt Q9ULI0),-0.154
9,ATP2A2_P16615_447_VGEATETALTCLVEK (UniProt P16615),0.0742
10,ASNA1_O43681_289_IDTHNIIVNQLVFPDPEKPCK (UniProt O43681),0.23
11,ATG16L1_Q676U5_506_TELLSCSR (UniProt Q676U5),-0.134
12,ATG7_O95352_368_CLLLGAGTLGCNVAR (UniProt O95352),0.0907
13,ASTE1_Q2TB18_640_QNTSCSK (UniProt Q2TB18),-0.306
14,ATP11B_Q9Y2G3_170_LDGSCHVTTASLDGETNLK (UniProt Q9Y2G3),-0.0459
15,ASH2L_Q9UBL3_581_SCTVSINFGPCFK (UniProt Q9UBL3),-0.0421
16,ATAD2_Q6PL18_1388_MEQEVENFSCSR (UniProt Q6PL18),0.0488

# Another view of part of the listing above:
row | Target | probe-labelled cysteine peptide fold change
1 | ATG16L1_Q676U5_145_IAECLQTISDLETECLDLR (UniProt Q676U5) | 0.211
13 | ASTE1_Q2TB18_640_QNTSCSK (UniProt Q2TB18) | -0.306
